Changes are numbered by the printed parent chain. Names and notes keep the numbering of the source. For some assays here: The name of at least one read-out is uncertain. Some of these results come from one statement about several compounds together.
B1: UGT76G1: wild-type Stevia rebaudiana-derived glycosyltransferase, amino acid sequence SEQ ID NO: 1 (protein)
chain: MENKTETTVRRRRRIILFPVPFQGHINPILQLANVLYSKGFSITIFHTNFNKPKTSNYPHFTFRFILDNDPQDERISNLPTHGPLAGMRIPIINEHGADELRRELELLMLASEEDEEVSCLITDALWYFAQSVADSLNLRRLVLMTSSLFNFHAHVSLPQFDELGYLDPDDKTRLEEQASGFPMLKVKDIKSAYSNWQILKEILGKMIKQTKASSGVIWNSFKELEESELETVIREIPAPSFLIPLPKHLTASSSSLLDHDRTVFQWLDQQPPSSVLYVSFGSTSEVDEKDFLEIARGLVDSKQSFLWVVRPGFVKGSTWVEPLPDGFLGERGRIVKWVPQQEVLAHGAIGAFWTHSGWNSTLESVCEGVPMIFSDFGLDQPLNARYMSDVLKVGVYLENGWERGEIANAIRRVMVDEEGEYIRQNARVLKQKADVSLMKGGSSYESLESLVSYISSL
modifications: The sequence is synthetized.
B2: S195Q: UGT76G1 (SEQ ID NO: 1) mutant, position 195 serine to glutamine (protein)
chain: B1 chain with S195Q
modifications: The sequence is synthetized.
B3: S195Q-StSUS1: recombinase (crude enzyme) from E. coli BL21 (DE3) co-expressing mutant S195Q and sucrose synthase StSUS1 (protein)
chain: B1 chain with S195Q
B4: L200Y-StSUS1: recombinase (crude enzyme) from E. coli BL21 (DE3) co-expressing mutant L200Y and sucrose synthase StSUS1 (protein)
chain: B1 chain with L200Y
B5: T284S-StSUS1: recombinase (crude enzyme) from E. coli BL21 (DE3) co-expressing mutant T284S and sucrose synthase StSUS1 (protein)
chain: B1 chain with T284S
B6: S285W-StSUS1: recombinase (crude enzyme) from E. coli BL21 (DE3) co-expressing mutant S285W and sucrose synthase StSUS1 (protein)
chain: B1 chain with S285W

Columns and labels:
Type in all cases: biochemical
[1] = Kinetic parameters of purified glycosyltransferases for rebaudioside D; conditions: substrate RebD, purified enzyme
Protocol: (§1) Activities of glycosyltransferase mutants and a WT glycosyltransferase were determined. A 3 mL catalytic reaction system was prepared from the following components: 1.2 mM rebaudioside E, 2 mM UDPG, 3 mM MgCl2, crude enzyme: 1 mg, and 100 mM potassium phosphate buffer with a pH of 7.2: the balance. A catalytic reaction was conducted on a shaker at 37° C. and 200 rpm, where a sample was collected at 0 min and 30 min. Sample treatment: 500 μL of a sample solution was pipetted and added to an EP tube; the EP tube was placed in boiling water at 95° C. for 15 min to stop a reaction, and then centrifuged in a centrifuge at 12,000 rpm for 1 min; and a resulting supernatant was collected and added to a new EP tube, filtered through an organic filter membrane (0.45 μm), and stored in a liquid-phase sample bottle for high-performance liquid chromatography (HPLC) analysis. […]
(§2) A final concentration of rebaudioside E was set to 10 μM to 2,000 μM or a final concentration of rebaudioside D was set to 50 μM to 2,000 μM. Rebaudioside E or rebaudioside D solutions of different concentrations each were mixed with an appropriate amount of each of the purified WT UGT76G1 and the mutant S195Q, and an enzyme activity was determined according to the enzyme activity assay method described above. […]

[2] = Kinetic parameters of purified glycosyltransferases for rebaudioside E; conditions: substrate RebE, purified enzyme
Protocol: as §1, §2

[3] = Preliminary screening: conversion of RebD by crude recombinases; conditions: RebD 1 g/L, sucrose 3 g/L, crude enzyme 5 mg/mL, 40° C.
Protocol: (§3) Recombinases were prepared with the mutant strains G87D-StSUS1, S147D-StSUS1, S147N-StSUS1, S195Q-StSUS1, L200Y-StSUS1, T284S-StSUS1, S285W-StSUS1, and G378P-StSUS1 and the WT strain UGT76G1-StSUS1, and then used to convert RebE or RebD to preliminarily screen out relatively-preferred mutants.
The conversion of RebD adopted a 3 mL reaction system including: RebD as a substrate: 1 g/L, sucrose: 3 g/L, crude enzyme: 5 mg/mL, and 100 mM potassium phosphate buffer (pH 7.2): the balance. A RebD conversion reaction was conducted on a shaker at 40° C. and 200 rpm for 6 h and 20 h, and corresponding conversion rates were shown in FIG. 2.

[4] = Preliminary screening: conversion of RebE by crude recombinases; conditions: RebE 10 g/L, sucrose 30 g/L, crude enzyme 5 mg/mL, pH 7.2, 40° C., 12 h
Protocol: as §3
The conversion of RebE adopted a 3 mL reaction system including. RebE as a substrate: 10 g/L, sucrose: 30 g/L, crude enzyme: 5 mg/mL, and 100 mM potassium phosphate buffer (pH 7.2): the balance. A RebE conversion reaction was conducted on a shaker at 40° C. and 200 rpm for 12 h, and corresponding conversion rates were shown in FIG. 1.

Molecule | Kcat/Km [1] | Kcat/Km [2] | substrate conversion rate for RebD ([3]; 6 h) | substrate conversion rate for RebD ([3]; 20 h) | substrate conversion rate for RebE [4]
B1 | 420 M⁻¹ s⁻¹ | 11760 M⁻¹ s⁻¹ | – | – | –
B2 | 1170 M⁻¹ s⁻¹ | 26270 M⁻¹ s⁻¹ | – | – | –
B3 | – | – | more than 70% | higher than 95% | higher than 90%
B4 | – | – | more than 70% | higher than 95% | higher than 90%
B5 | – | – | – | higher than 95% | higher than 90%
B6 | – | – | – | higher than 95% | higher than 90%
